From the supplement of paper PMC4604168 (melanoma cell lines)
The other results are listed elsewhere or left out. Repeats are few or missing, and single values can be far off.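 The apoptosis fraction was the count of cleaved-PARP antibody-stained nuclei relative to all DNA-stained nuclei, imaged in 1,536-well plates. Screening doses were set so most cells survived, and baseline and induced cleaved-PARP levels vary greatly across cell lines.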

Tested on: CBRC034 (line from a melanoma biopsy)
Assay: cleaved PARP positive nuclei fraction relative to DMSO control; melanoma cells; higher = more apoptosis
Details: library dose: low library concentration; 72 h

SMILES | cleaved PARP positive nuclei fraction [%]
CC1(C)NC(=O)N(c2ccc([N+](=O)[O-])c(C(F)(F)F)c2)C1=O [nilutamide] + O=c1cc(-c2cccc3c2Sc2ccccc2S3)oc(N2CCOCC2)c1 [KU55933] (first compound 1 µM, partner dose 1 µM) | 37.4
COc1cc(Nc2ncc(F)c(Nc3ccc4c(n3)NC(=O)C(C)(C)O4)n2)cc(OC)c1OC [Tamatinib] + Oc1nc(-c2ccc(C(F)(F)F)cc2)nc2c1CSCC2 [XAV939] (first compound 0.4 µM, partner dose 2 µM) | 161
O=C(CCCCCCC(=O)Nc1ccccc1)NO [vorinostat] + O=C(O)C(=O)Nc1sc2c(c1C(=O)O)CCNC2 [TCS401] (first compound 0.08 µM, partner dose 1.66667 µM) | 106
